The target of assay [1] is T1, GFP-DDHD2 (pEGFP-C1-DDHD2^WT) (UniProt O94830).
T1 sequence: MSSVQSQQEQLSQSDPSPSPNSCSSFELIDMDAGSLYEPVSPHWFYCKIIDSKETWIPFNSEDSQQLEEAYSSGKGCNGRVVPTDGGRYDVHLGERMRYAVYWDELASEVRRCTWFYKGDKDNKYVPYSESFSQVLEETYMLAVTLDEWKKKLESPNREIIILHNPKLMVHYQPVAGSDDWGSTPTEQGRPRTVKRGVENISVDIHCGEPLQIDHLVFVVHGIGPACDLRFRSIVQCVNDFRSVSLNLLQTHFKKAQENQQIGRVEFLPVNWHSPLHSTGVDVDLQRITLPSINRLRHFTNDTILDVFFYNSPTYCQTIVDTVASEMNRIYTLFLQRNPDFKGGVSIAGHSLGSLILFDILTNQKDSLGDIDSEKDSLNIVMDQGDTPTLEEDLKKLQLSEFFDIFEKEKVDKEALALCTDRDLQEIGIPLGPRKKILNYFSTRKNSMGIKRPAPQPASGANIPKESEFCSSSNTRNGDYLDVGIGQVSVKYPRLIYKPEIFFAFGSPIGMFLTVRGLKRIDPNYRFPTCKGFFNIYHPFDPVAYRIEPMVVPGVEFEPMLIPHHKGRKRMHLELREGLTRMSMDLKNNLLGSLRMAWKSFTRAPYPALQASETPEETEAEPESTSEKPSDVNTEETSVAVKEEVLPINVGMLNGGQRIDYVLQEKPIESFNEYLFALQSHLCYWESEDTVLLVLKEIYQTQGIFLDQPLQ
As to the kind of experiment: co-IP; GFP-trap (anti-GFP magnetic beads, 1 h at 4 °C) on lysates of transfected PC12 or STXBP1/2 DKO PC12 cells, non-stimulated or stimulated (high K+ in the text, 2 mM BaCl2 in legend and methods); western blot.

Amino acid sequences for entries named in this document (tags omitted).
UniProt P61765: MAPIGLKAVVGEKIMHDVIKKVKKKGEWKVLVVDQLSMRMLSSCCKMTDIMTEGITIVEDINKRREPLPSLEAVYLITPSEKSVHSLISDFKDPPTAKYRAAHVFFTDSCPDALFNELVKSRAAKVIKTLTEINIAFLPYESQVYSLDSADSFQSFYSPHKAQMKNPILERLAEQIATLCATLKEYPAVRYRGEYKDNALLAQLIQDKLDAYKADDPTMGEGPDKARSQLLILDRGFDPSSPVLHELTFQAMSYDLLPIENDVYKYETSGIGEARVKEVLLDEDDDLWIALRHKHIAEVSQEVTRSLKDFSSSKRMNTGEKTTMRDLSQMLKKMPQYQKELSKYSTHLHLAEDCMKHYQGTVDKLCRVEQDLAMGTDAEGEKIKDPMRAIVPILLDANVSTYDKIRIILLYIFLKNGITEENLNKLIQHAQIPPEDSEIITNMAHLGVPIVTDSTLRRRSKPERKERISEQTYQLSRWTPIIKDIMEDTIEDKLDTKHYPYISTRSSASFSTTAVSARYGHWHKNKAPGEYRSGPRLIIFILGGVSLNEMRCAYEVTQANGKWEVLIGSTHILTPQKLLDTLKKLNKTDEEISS
UniProt O75608: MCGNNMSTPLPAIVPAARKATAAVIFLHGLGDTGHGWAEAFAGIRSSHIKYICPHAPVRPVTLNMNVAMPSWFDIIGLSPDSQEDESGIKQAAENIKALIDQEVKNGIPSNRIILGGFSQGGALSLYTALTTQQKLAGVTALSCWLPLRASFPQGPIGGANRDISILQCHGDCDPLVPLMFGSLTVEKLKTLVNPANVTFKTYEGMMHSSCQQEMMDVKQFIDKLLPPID

The target of assay [2] is GFP-tagged STXBP1^WT (ALPHAScreen) (UniProt P61765). As to the kind of experiment: AlphaScreen or HTRF; protein pair co-expressed in Leishmania tarentolae extract (one with C-terminal GFP, the other with C-terminal Cherry-cMyc), diluted in 25 mM HEPES, 50 mM NaCl; biotin-coupled GFP-nanotrap on streptavidin donor beads, anti-cMyc acceptor beads; room temperature.

These are yes or no findings as the source states them, for the method shown. For some assays here: In cells and extracts the contact can be indirect. Some binding calls cover weakened binding; strength is not graded here. For some assays here: Sequences can lack the tags named with a protein.

As for “Syntaxin-binding protein 1 (STXBP1), endogenous in PC12 cells (from UniProt P61765 1-594)”, the binding entry in assay [1] is “binds”.
Regarding “myc-tagged LYPLA1 (ALPHAScreen) (from UniProt O75608 1-230) (enzyme)”, in assay [2], the binding result is given as “binds”.

The record behind these values is article PMC10897203.
